This experiment deals with SYT1C2AB (Arabidopsis synaptotagmin 1, C2A and C2B domains, residues K253-C terminus) (Arabidopsis) (UniProt Q9SKR2). Description: SAXS (SEC-SAXS); 45 ul of SYT1C2AB at 10 mg ml^-1 injected onto Superdex 200 increase 3.2/300 at 20°C; 50 mM Tris pH 8, 50 mM NaCl; with 1 mM Ca2+ or 1 mM EGTA (no significant differences); molecular mass from the Porod volume; both purified. (Size exclusion chromatography separates by hydrodynamic size, large species first.)

These are yes or no findings as the source states them, for the method shown. Where a sequence is shown, tags or fusion partners need not be part of it.

B1: SYT1C2AB (Arabidopsis synaptotagmin 1, C2A and C2B domains, residues K253-C terminus) (domain or fragment, UniProt Q9SKR2 253-541)
chain: KAFRRPVGIVHVKVVRAVGLRKKDLMGGADPFVKIKLSEDKIPSKKTTVKHKNLNPEWNEEFKFSVRDPQTQVLEFSVYDWEQVGNPEKMGMNVLALKEMVPDEHKAFTLELRKTLDGGEDGQPPDKYRGKLEVELLYKPFTEEEMPKGFEETQAVQKAPEGTPAAGGMLVVIVHSAEDVEGKHHTNPYVRIYFKGEERKTKHVKKNRDPRWNEEFTFMLEEPPVREKLHVEVLSTSSRIGLLHPKETLGYVDIPVVDVVNNKRMNQKFHLIDSKNGKIQIELEWRTAS
With B1, the binding entry was “no binding (tested: 10 mg ml^-1 injected)”.

Values taken from PMC8380656, “The structure and flexibility analysis of the Arabidopsis synaptotagmin 1 reveal the basis of its regulation at membrane contact sites” (Life Science Alliance, 2021).
